{"source": "patent US20150166671A1", "about": "(CHILDREN S MEDICAL CENTER, published 2015)", "molecular_target": "Wnt5a (Homo sapiens (Human))", "experiment": "co-immunoprecipitation from CM with an anti-FLAG antibody, Western blotting", "note": "These are yes or no findings as the source states them, for the method shown. In cells and extracts the contact can be indirect. A result given as binding can be weak or reduced; the word gives no strength. Sequences can lack the tags named with a protein."}
{"binder": "TIKI2N-FLAG-6xHIS (enzyme, not shown: small tags and cut ends) RPQPPDGGQCRPPGSQRDLNSFLWTIRRDPPAYLFGTIHVPYTRVWDFIPDNSKAAFQASTRVYFELDLTDPYTISALASCQLLPHGENLQDVLPHELYWRLKRHLDYVKLMMPSWMTPAQRGKGLYADYLFNAIAGNWERKRPVWVMLMVNSLTERDVRFRGVPVLDLYLAQQAEKMKKTTGAVEQVEEQCHPLNNGLNFSQVLFALNQTLLQQESVRAGSLQASYTTEDLIKHYNCGDLSAVIFNHDTSQLPNFINTTLPPHEQVTAQEIDSYFRQELIYKRNERMGKRVMALLRENEDKICFFAFGAGHFLGNNTVIDILRQAGLEVDHTPAGQAIHSPAPQSPAPSPEGTSTSPAPVTPAAAVPEAPSVTPTAPPEDEDPALSPHLLLPDSLSQLEEFGRQRKWHKRQSTHQRPRQFNDLWVRIEDSTTASPPPLPLQPTHSSGTAKPPFQLSDQLQQQDPPG", "values": [{"measurement": "binding", "value": "binds"}]}
